This is an account of results in patent publication US20170145058 (published 2017).

This series in a line: peptide synthesis. The settings on record: for final LC-MS purity: LC/MS (Method 3).
Where [1] appears, read: late stage modification step, run 1.
Where [2] appears, read: late stage modification step, run 2.

Regarding “(2S)-1-{[(6R,9S,12S,15S,18S,21R)-21-{[({[(Aminoacetyl)amino]acetyl}amino)acetyl]amino}-9-(2-amino-2-oxoethyl)-12-(3-amino-3-oxopropyl)-15-benzyl-18-(4-hydroxybenzyl)-8,11,14,17,20-pentaoxo-2-(27-oxo-2,5,8,11,14,17,20,23-octaoxa-26-azatriacontan-30-yl)-1,4-dithia-7,10,13,16,19-pentaazacyclodocosan-6-yl]carbonyl}-N-{(2S)-6-amino-1-[(2-amino-2-oxoethyl)amino]-1-oxohexan-2-yl}pyrrolidine-2-carboxamide”, the “final LC-MS purity” value (conjugation step) is on record as 99%. Also, the conjugation yield is 23% of theory (conjugation step, run 1) and 7% of theory (conjugation step, run 2).
“terlipressin + N-Boc-L-propargylglycine, Fraction 3”: for the setting “late stage modification step”, the step yield is 3% of theory and the “final LC-MS purity” value came out at 89%.
“4-{4-[(6R,9S 12S,15S,18S,21R)-21-{[({[(Aminoacetyl)amino]acetyl}amino)acetyl]amino}-6-{[(25)-2-({(2S)-6-amino-1-[(2-amino-2-oxoethyl)amino]-1-oxohexan-2-yl}carbamoyl)pyrrolidin-1-yl]carbonyl}-9-(2-amino-2-oxoethyl)-12-(3-amino-3-oxopropyl)-15-benzyl-18-(4-hydroxybenzyl)-8,11,14,17,20-pentaoxo-1,4-dithia-7,10,13,16,19-pentaazacyclodocosan-2-yl]butyl}-4-methylmorpholin-4-ium trifluoroacetate”: the “final LC-MS purity” value reads like this: under setting [1], 65%; under setting [2], 87%. Moreover, the step yield under setting [1] is 4% of theory and the step yield under setting [2] is listed as 8% of theory.
In the case of “terlipressin + N-Boc-L-propargylglycine, Fraction 1”, the step yield (late stage modification step) is listed as 4% of theory.
Regarding “terlipressin + N-Boc-L-propargylglycine, Fraction 2”, where the note is “late stage modification step”, the step yield is on record as 15% of theory and the “final LC-MS purity” value is 94%.
Take “5-[(6R,9S,12S,15S,18S,21R)-21-{[({[(Aminoacetyl)amino]acetyl}amino)acetyl]amino}-6-{[(2S)-2-({(2S)-6-amino-1-[(2-amino-2-oxoethyl)amino]-1-oxohexan-2-yl}carbamoyl)pyrrolidin-1-yl]carbonyl}-9-(2-amino-2-oxoethyl)-12-(3-amino-3-oxopropyl)-15-benzyl-18-(4-hydroxybenzyl)-8,11,14,17,20-pentaoxo-1,4-dithia-7,10,13,16,19-pentaazacyclodocosan-2-yl]pentanoic acid”: the step yield (late stage modification step) is listed as 2.6% of theory.
As for “(2S)-1-{[(3R,6S,9S,12S,15S,18R,22aS,23R,23aR)-18-{[({[(Aminoacetyl)amino]acetyl}amino)acetyl]amino}-6-(2-amino-2-oxoethyl)-9-(3-amino-3-oxopropyl)-12-benzyl-15-(4-hydroxybenzyl)-23-(hydroxymethyl)-5,8,11,14,17-pentaoxohexacosahydro-20aH-cyclopropa[5, 6]cycloocta[1,2-b][1,4,7,10,13,16,19]dithiapentaazacyclodocosin-3-yl]carbonyl}-N-{(2S)-6-amino-1-[(2-amino-2-oxoethyl)amino]-1-oxohexan-2-yl}pyrrolidine-2-carboxamide”, for the setting “late stage modification step”, the step yield is 7.5% of theory and the “final LC-MS purity” value is 65%.
For “(6R,9S,12S,15S,18S,21R)-21-Amino-9-(2-amino-2-oxoethyl)-12-(3-amino-3-oxopropyl)-15-benzyl-2-(4-carboxybutyl)-18-(4-hydroxybenzyl)-8,11,14,17,20-pentaoxo-1,4-dithia-7,10,13,16,19-pentaazacyclodocosane-6-carboxylic acid”, the step yield runs as follows: under setting [1], 8% of theory; under setting [2], 4% of theory.
